The campaign covered roughly 390,000 compounds. About 4,000 (1%) were called active. The shares of active, inactive and inconclusive entries below differ from those in the screen. Calls follow the shape of the dose curve; as a rule, active = well fitted inhibition curve with a large enough effect; inconclusive = small, poorly fitted or top-dose-only effect, or another doubt; inactive = no such curve, though single readings can be large or run the other way. A potency beside an inconclusive call is a rough fit, not a confirmed value.
biological target: DNA polymerase iota (Homo sapiens) (UniProt Q9UNA4); assay: qHTS for Inhibitors of Polymerase Iota; details: Pol iota fluorescent replication assay, 10 min; series mostly up to 115 µM; activity, negative = inhibition: at the top concentration
Summary of the method: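 Pol iota at 10 nM preincubated 15 min with compounds at room temperature; reaction started with fluorescent substrate, 50 nM final. Fluorescence read kinetically at 0 and 10 min; buffer-only wells as negative control.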
Potency is read from the fitted curve at half-maximal effect.

The chains behind the UniProt entries cited, without tags or fusion partners. Where a name states a change or a piece, a line headed by the entry shows the natural chain unless it says otherwise.
UniProt Q9UNA4: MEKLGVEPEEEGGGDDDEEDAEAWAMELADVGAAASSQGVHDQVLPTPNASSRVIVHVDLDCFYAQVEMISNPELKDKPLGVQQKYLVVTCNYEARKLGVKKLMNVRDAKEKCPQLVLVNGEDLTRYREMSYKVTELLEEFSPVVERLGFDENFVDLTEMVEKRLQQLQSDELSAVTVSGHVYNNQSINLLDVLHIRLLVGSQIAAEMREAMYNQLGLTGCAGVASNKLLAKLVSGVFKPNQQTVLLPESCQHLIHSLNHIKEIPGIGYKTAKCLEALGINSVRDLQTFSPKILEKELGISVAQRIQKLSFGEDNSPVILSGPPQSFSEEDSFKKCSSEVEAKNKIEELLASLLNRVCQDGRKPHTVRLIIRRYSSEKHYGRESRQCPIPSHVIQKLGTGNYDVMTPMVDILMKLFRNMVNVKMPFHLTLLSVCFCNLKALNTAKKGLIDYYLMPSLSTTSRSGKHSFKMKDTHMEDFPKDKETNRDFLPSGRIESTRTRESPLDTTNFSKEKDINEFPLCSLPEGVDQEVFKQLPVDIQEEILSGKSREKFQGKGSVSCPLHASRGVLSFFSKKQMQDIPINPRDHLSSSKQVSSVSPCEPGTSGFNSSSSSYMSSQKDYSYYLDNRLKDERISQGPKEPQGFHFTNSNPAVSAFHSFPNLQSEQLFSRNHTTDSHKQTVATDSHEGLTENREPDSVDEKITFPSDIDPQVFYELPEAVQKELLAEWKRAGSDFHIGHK

Potency, inactive:
CC(C)C[C@@H](CO)N1CCN(Cc2ccc([N+](=O)[O-])cc2)CCC1=O
Nc1nc(NCc2ccc(Cl)cc2Cl)c2[nH]cnc2n1

Potency, inconclusive:
Cc1ccc(NC(=O)CN(C)C(=O)COc2ccccc2-c2ccccc2)cc1 89.1 µM [inhibitor, partial curve, poor fit]
COc1ccc(C(=O)Nc2ccc3oc(-c4cccc(Cl)c4)cc(=O)c3c2O)cc1 79.4 µM [inhibitor, single point]
Cc1ccc(-c2cc(C(=O)Nc3ccccc3C(N)=O)c3ccccc3n2)o1 22.4 µM [inhibitor, full curve]
Cn1nc(-c2ccc(Cl)cc2)c2cc(C(=O)NCCN3CCOCC3)sc21 79.4 µM [inhibitor, partial curve, poor fit]
COc1ccc([N+](=O)[O-])cc1NC(=S)NC(NC(=O)Cc1ccc(OC)c(OC)c1)C(Cl)(Cl)Cl (centres undefined) 14.1 µM [inhibitor, full curve]
O=C(NNc1ccccc1C(F)(F)F)c1sccc1Br 15.8 µM [inhibitor, partial curve, poor fit]
CCc1nnc(NS(=O)(=O)c2ccc(N/C=C\C(=O)c3ccc4ccccc4c3)cc2)s1 22.4 µM [inhibitor, full curve]
CN(C)c1ccc(/C=C/c2ccnc3c(Cl)ccc(Cl)c23)cc1 89.1 µM [inhibitor, partial curve, poor fit]
O=C(O)CCCNC(=O)/C=C/c1ccco1 2.24 µM [inhibitor, full curve]
COC(CNC(=O)Cn1nc(Cc2ccncc2)c2ccccc2c1=O)OC 17.8 µM [inhibitor, partial curve]
COc1ccccc1NC(=O)COC(=O)c1c[nH]c2ccccc12 50.1 µM [inhibitor, partial curve, poor fit]
CC(=O)C(C(C)=O)c1c(Cl)c(O)c(O)c2c(C(=O)c3ccccc3)coc12 12.6 µM [inhibitor, partial curve, poor fit]
O=C(CN1C(=O)NC2(CCCCC2)C1=O)NNC(=O)C1CC1 89.1 µM [inhibitor, single point]
O=C1Nc2ccc(S(=O)(=O)Nc3ccccc3O)c3cccc1c23 89.1 µM [inhibitor, single point]
COc1cc(Cl)c(C)cc1NC(=O)CSc1ncc(S(=O)(=O)c2ccc(C(C)(C)C)cc2)c(=O)[nH]1 56.2 µM [inhibitor, partial curve, poor fit]
O=C(CCNc1cccc(C(F)(F)F)c1)c1ccco1 70.8 µM [inhibitor, single point]
O=C(N/N=C/c1ccncc1)c1cc(-c2ccc(Br)s2)[nH]n1 35.5 µM [inhibitor, single point]
CCOc1ccc(C2C3=C(CCCC3=O)N(CC(=O)O)C3=C2C(=O)CCC3)cc1 15.8 µM [inhibitor, partial curve, poor fit]
CC(=O)c1c(C)n(-c2ccccc2Br)c2ccc(O)cc12 79.4 µM [inhibitor, partial curve, poor fit]
O=C(COc1ccccc1)N/N=C/c1ccc([N+](=O)[O-])o1 22.4 µM [inhibitor, single point]
O=C(/C=C/Sc1ccccc1)c1ccccc1 112 µM [inhibitor, partial curve, poor fit]
CN(Cc1ccccc1)S(=O)(=O)c1ccc2[nH]c(=O)ccc2c1 15.8 µM [inhibitor, single point]
COc1ccc(-c2[nH]nc3c2C(c2ccc(OC(=O)N4CCOCC4)cc2)C(C#N)=C(N)O3)cc1 (centres undefined) 28.2 µM [inhibitor, single point]
O=C1CN(C(=O)CNCc2ccccc2)c2ccccc2N1 100 µM [inhibitor, partial curve, poor fit]
COC(=O)CNC(=O)C1(C)C=CCN1C(=O)c1ccccc1 (centres undefined) 25.1 µM [inhibitor, full curve, poor fit]
CC1CN(S(=O)(=O)c2cccc(C(=O)NCCc3ccc(S(N)(=O)=O)cc3)c2)CC(C)O1 (centres undefined) 89.1 µM [inhibitor, single point]
O=c1oc2c3c(ccc2c2ccccc12)OCN(Cc1ccccc1Cl)C3 15.8 µM [inhibitor, full curve, poor fit]
COC(=O)c1c(NC(=O)Cc2coc3ccc(C(C)C)cc23)sc2c1CCC2 89.1 µM [inhibitor, single point]

2 entries picked at random from the list so far:
Potency, inconclusive:
Cc1ccc(NC(=O)CN(C)C(=O)COc2ccccc2-c2ccccc2)cc1 89.1 µM [inhibitor, partial curve, poor fit]
Cn1nc(-c2ccc(Cl)cc2)c2cc(C(=O)NCCN3CCOCC3)sc21 79.4 µM [inhibitor, partial curve, poor fit]

Following part.

Potency, active:
Cc1c(C(=O)O)cccc1-c1ccc(/C=N/n2cnnc2)o1 35.5 µM

activity, negative = inhibition, inactive:
COc1ccc2c(c1)CCC2=O -3.49%
CCOc1ccc(C2Nc3ccccc3-c3nnc(SCc4ccccc4)nc3O2)cc1OC (centres undefined) -3.98%
O=C(C[n+]1cccc2cc(Cl)ccc21)c1ccc(I)cc1 4.53%
CC(C)CCN(Cc1ccco1)C(=O)c1cc2c(Cl)nc3ccccc3c2s1 40.1%
CCC(=O)N1CCc2cc(Br)cc(S(=O)(=O)CCC(=O)NCCc3ccc(Cl)cc3)c21 25.2%
COC(=O)C(N)Cc1ccc(O)cc1 (centres undefined) -20.7%
COc1cc(NC(=O)Cn2ncc3c([nH]c4ccc(C)cc43)c2=O)cc(OC)c1OC 3.06%
O=C(c1ccc(COc2ccccc2Cl)o1)N1CCCC1 -9.94%
CCc1ccc(-c2csc3ncn(CC(=O)NCc4ccco4)c(=O)c23)cc1 19.1%
c1ccc2c(c1)nc1n2CCS1 -4.39%
Cc1ccc(CSCCC(=O)NCc2ccc(F)cc2Cl)cc1 -24%
CC(C)(C)OC(=O)NS(=O)(=O)Nc1ccccc1Br -16.7%
Cc1cccc(C(=O)n2nc(-c3cccnc3)nc2NCc2ccccc2)c1 4.33%

Reference: PubChem BioAssay AID588590 (National Center for Advancing Translational Sciences (NCATS), 2011)
